Laboratory results taken from PubChem BioAssay AID588345 (Broad Institute, 2011).
The whole screen tested about 1,300 compounds, of which about 850 (65%) were called active. Inconclusive results (about 1%) are left out. How the calls were made is not given here. The set was probably picked from earlier hits. Only a part is listed here, and it is no random draw. Measured potencies and affinities stand elsewhere.

biological target: Dual specificity tyrosine-phosphorylation-regulated kinase 1A (Rattus norvegicus) (UniProt Q63470); assay: Dyrk1A enzyme activity inhibition – biochemical, cherry-pick, plate reader, 2124-01, dose response (AID 588345); conditions: Dyrk1A kinase biochemical assay; at 12 µM (top of the series)

SMILES	activity change, negative = inhibition
COc1cc2ccc(=O)oc2c2ccoc12	inactive: 3.75%
NC(=O)c1c(Br)n(C2OC(CO)C(O)C2O)c2ncnc(N)c12 (stereo not given)	inactive: -34.2%
Cc1cccc(-n2c(O)c(/C=C3/C(c4ccccc4)=Nc4ccccc43)c(=O)[nH]c2=O)c1	inactive: 16.9%
COC(=O)C1=C(c2ccc(F)cc2OCc2ccccc2)C[C@@H]2CC[C@H]1N2C(=O)NC1CC1	inactive: -6.58%
COC(=O)C1=C(c2ccc(Cl)c(C(F)(F)F)c2)C[C@@H]2CC[C@H]1N2C(=O)NCCOc1ccc(OC)cc1	inactive: -9.24%
NC(=O)c1cn(C2OC(CO)C(O)C2O)c2ncnc(N)c12 (stereo not given)	inactive: 4.89%
Cc1nccc2c1[nH]c1ccccc12	inactive: 6.39%
COC(=O)C1=C(c2ccc(F)cc2OCc2ccccc2)C[C@@H]2CC[C@H]1N2C(=O)NCc1ccccc1	inactive: -6.04%
Clc1ccc2c(c1)C(c1ccccc1Cl)=NCc1nnc(N3CCN(CCSc4ccccc4)CC3)n1-2	inactive: 10.3%
N#C/C(=C\c1ccc(O)cc1)C(=O)O	inactive: -4.64%

A run of entries from further up, as a working copy:
SMILES	activity change, negative = inhibition
COC(=O)C1=C(c2ccc(Cl)c(C(F)(F)F)c2)C[C@@H]2CC[C@H]1N2C(=O)NCCOc1ccc(OC)cc1	inactive: -9.24%
NC(=O)c1cn(C2OC(CO)C(O)C2O)c2ncnc(N)c12 (stereo not given)	inactive: 4.89%
